Consider one compound from US10799594B2, “Drug delivery polymer and uses thereof” (priority 2013, dated 2020).

SMILES strings stand for the structures.

For this assay, the system named is Hela cells. Nature of the assay: HeLa cell viability, MTT assay. The class given is cell-based, Human. Particulars: 48 hours exposure, total Pt concentration. How it is done: The cells were exposed to solutions of Pt-BASP or free cisplatin with varied total Pt concentration for 48 hours. […] Addition of ligands to the PEG periphery that induce internalization may lead to even greater efficacy.
Human Hela cell line was cultured at 37° C. under a humidified atmosphere of 5% CO2. The cells were grown in the final medium (FMEM) consist of 89% Eagle's minimum essential medium (EMEM, ATCC, 30-2003), 10% fetal bovine serum (Gibco, 10437028) and 1% antibiotics (100 U/mL penicillin and 100 μg/mL streptomycin, Gibco. 105140122). The cells were continuously maintained in the culture medium and subcultured every 3-4 days.
Hela cells were seeded at 10.000 cells/well in a 96-well plate and allowed to attach for 20 h before drug treatment. Prior to drug exposure, the culture medium was removed. Then, fresh media with drug concentrations ranging from 0 to 400 μM (based on dry weight of polymer dissolved in FMEM) were added to the appropriate wells. The cells were subsequently incubated in a cell culture incubator for 48 h. The medium was removed before fresh drug-free medium was added to each well. The cells were incubated for another 24 h before analysis by the MTT cell proliferation assay (ATCC, 30-1010K). Cells were incubated with fresh medium containing MTT reagent for 4 h at 37° C. […] Absorbance at 550 nm was measured on a Safire II (Tecan) plate reader. […]

For `N.N.[Cl][Pt][Cl]` [cisplatin], the IC50 worked out at 23 µM.
